The filed quantity is “Percent Effect” (%).
The controls that fix the scale are not given in the record; negative values are as filed.
The compounds are a random part of those screened.

Mtb growth Cornell: 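Whole-cell assay for inhibitors of Mycobacterium tuberculosis growth, labelled Cornell in the record; the read-out is not stated. The concentration is filed as 10 mM, unlikely as a test dose, so the dose is not known. The record gives no direction; compounds strong in two other growth screens of this library score well above the rest, so higher reads as stronger inhibition. Of about 53,000 compounds tested this way, about 900 (1.7%) reached 50% or more in at least one test.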
Mtb heat-shock: 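Assay on Mycobacterium tuberculosis, filed only as a heat shock assay from Cornell; the read-out is not stated. The concentration is filed as 10 mM, unlikely as a test dose, so the dose is not known. Higher reads as stronger inhibition (inferred: compounds with an IC50 in retests scored well above the rest). About 69,000 compounds were tested under these conditions; 1.4% (about 930) showed 50% or more at least once.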

- [H][C@]12CC[C@]([H])(CN(c3ncccn3)C1)N(C(=O)c1ccc[nH]1)C2 : Mtb growth Cornell: 9.582%; Mtb heat-shock: -6.323%
- O=C(Cc1cc2c(cc1Br)OCCO2)NC1CCS(=O)(=O)C1 (centres undefined) : Mtb growth Cornell: -20.21%; Mtb heat-shock: 6.145%
- CS(=O)(=O)N1Cc2nccn2CC(Cn2ncccc2=O)C1 (centres undefined) : Mtb growth Cornell: 12.67%; Mtb heat-shock: 1.434%
- Cn1nnc2c(N3CC(C(=O)NCc4ccccc4F)C3)ncnc21 : Mtb growth Cornell: 0.5311%; Mtb heat-shock: 19.09%
- CSCCC(NC(=O)c1ccco1)C(=O)N(C)Cc1ccsc1 (centres undefined) : Mtb growth Cornell: -9.579%; Mtb heat-shock: -0.2324%
- Cc1cc(CNC(=O)NCC(O)c2cccc(C(F)(F)F)c2)no1 (centres undefined) : Mtb heat-shock: 1.753%
- COc1ccc(C[C@H]2CN(c3nnc(C)s3)CC[C@@H]2OC)cc1.O=C(O)C(F)(F)F : Mtb growth Cornell: 31.34%; Mtb heat-shock: 15.24%
- CC(=O)NCCNC(=O)c1sc(-c2ccc(C)cc2C)nc1C : Mtb growth Cornell: 28.6%; Mtb heat-shock: 24.8%
- Cc1cnn(CCNCC(=O)NCc2ccccc2)c1 : Mtb growth Cornell: 18.42%; Mtb heat-shock: -9.764%
- [H][C@]12CC[C@]([H])(CN(C3Cc4ccccc4C3)C1)N(C(=O)OCCOC)C2 : Mtb heat-shock: 14.97%
- COC(=O)c1ccc(CNCc2cn(C)nc2C)cc1 : Mtb growth Cornell: -24.4%; Mtb heat-shock: -12.54%
- CCS(=O)(=O)N1CCC2(C1)C(=O)N(C)CCN2Cc1ccncc1.O=C(O)C(F)(F)F.O=C(O)C(F)(F)F (centres undefined) : Mtb growth Cornell: 28.93%; Mtb heat-shock: -26.22%
- O=C(c1ccc(S(=O)(=O)NCCc2ccncc2)cc1)N1CCCC1 : Mtb heat-shock: 5.544%
- CNCc1cnc(Nc2ccccc2)nc1 : Mtb growth Cornell: 25.89%; Mtb heat-shock: -23.45%
- CCc1ccc2c(C3CN(S(C)(=O)=O)C3)ncn2c1 : Mtb growth Cornell: 13.01%; Mtb heat-shock: -5.732%
- O=S(=O)(NC1=NCN(CCc2cccs2)CN1)c1ccccc1 : Mtb heat-shock: -16.09%
- Cc1cc(C(=O)N(C)S(=O)(=O)C(C)C)ccc1F : Mtb growth Cornell: 24.14%; Mtb heat-shock: 6.118%
- CC(NC(=O)NCCn1ccnc1)c1ccc2c(c1)OCCO2 (centres undefined) : Mtb heat-shock: -10.69%
- COc1ccc(N(Cc2ccco2)C(=O)C2CCCO2)cc1F (centres undefined) : Mtb heat-shock: -1.409%
- NC(=O)CN1CCN(C(=O)c2cc(Cl)cc3cccnc23)CC1 : Mtb heat-shock: -7.298%
- CCc1nc(C)c(-c2nccn2CC2CC(=O)N(CC)C2)[nH]1 (centres undefined) : Mtb growth Cornell: -6.546%; Mtb heat-shock: -9.149%
- COCCNC(=O)Nc1ccn(-c2cccc(C(F)(F)F)c2)n1 : Mtb growth Cornell: 5.23%; Mtb heat-shock: -13.05%
- [H][C@@]12COC[C@]1([H])[C@H](OCc1ccccn1)CN2Cc1ccoc1 : Mtb growth Cornell: -23.09%; Mtb heat-shock: 52.89%
- CNC(=O)c1cn[nH]c1C1(C)CCCN(Cc2nccn2C(C)C)C1 (centres undefined) : Mtb growth Cornell: 13.92%; Mtb heat-shock: -5.847%
- CC1(C(=O)NC2CCCC2)CCCN(c2ncccn2)C1 (centres undefined) : Mtb growth Cornell: -7.134%; Mtb heat-shock: -21.16%
- Cc1ncnc2c1CCN(C(=O)c1ccncc1F)CC2.O=C(O)C(F)(F)F : Mtb growth Cornell: 2.745%; Mtb heat-shock: -11.3%
- CN1C(=O)CC(c2cnn(C)c2)C12CCN(C(=O)c1cccn1C)CC2 (centres undefined) : Mtb growth Cornell: 4.296%; Mtb heat-shock: -22.05%
- COc1ccc(-c2noc(Cn3cnc(C)c3)n2)c(OC)c1OC : Mtb heat-shock: 16.58%
- Cc1cccc(Nc2noc3c2CN(C(=O)c2ccn(C)n2)CC3)c1C : Mtb growth Cornell: 31.2%; Mtb heat-shock: 1.787%
- CN1CCN([C@@H]2CN(C(=O)CCOc3ccccc3)C[C@H]2O)CC1 : Mtb growth Cornell: 4.226%; Mtb heat-shock: -6.764%
- COc1ncccc1N(C)C(=O)Cn1cc(-c2ccccc2)nn1 : Mtb growth Cornell: 3.895%; Mtb heat-shock: 0.7371%
- CCC(CC)C(=O)NCc1cnn(CC)c1 : Mtb growth Cornell: 6.887%; Mtb heat-shock: -18.89%

Some entries from above, unchanged:

| structure | Mtb growth Cornell | Mtb heat-shock |
|---|---|---|
| `COCCNC(=O)Nc1ccn(-c2cccc(C(F)(F)F)c2)n1` | 5.23% | -13.05% |
| `[H][C@]12CC[C@]([H])(CN(c3ncccn3)C1)N(C(=O)c1ccc[nH]1)C2` | 9.582% | -6.323% |
| `CNC(=O)c1cn[nH]c1C1(C)CCCN(Cc2nccn2C(C)C)C1` (centres undefined) | 13.92% | -5.847% |
| `O=C(Cc1cc2c(cc1Br)OCCO2)NC1CCS(=O)(=O)C1` (centres undefined) | -20.21% | 6.145% |

Source: ChEMBL document CHEMBL3988442, “University of Dundee, Small-Polar-MMV Screening Library” (2021).